Earlier results in US7276228B2, “Methods for treating hematological disorders through inhibition of DNA methylation and histone deacetylase” (SuperGen, Inc., priority 2001, dated 2007).
At least one compound was matched to its structure with a doubt left.

Assays:
HDAC = details: literature statements
protozoa = details: Darkin-Rattray et al. (1996)

For `CCC(=O)CCCCC[C@@H]1NC(=O)[C@H]2CCCCN2C(=O)[C@H]([C@@H](C)CC)NC(=O)[C@H](Cc2cn(OC)c3ccccc23)NC1=O` [Apicidin, apicidin], the “concentration at which HDAC activity is inhibited” value (HDAC) is listed as “nanomolar concentrations” and the antiprotozoal activity (protozoa) is listed as “potent, broad-spectrum antiprotozoal activity”.
